{
  "source": "paper PMC9340482",
  "binders": {"B1": {"name": "Mad1‐Strep, expressed in S. pombe (protein, UniProt P87169 1-676)", "chain": "MADSPRDPFQSRSQLPRFLATSVKKPNLKKPSVNSANETKNPKLASLEFQLENLKNDLKRKELEFEREQIELQRKLAEEHEQKNSLQLRLTLVEKQLEEQSTSYQKEIEEVRNEKEATQVKIHELLDAKWKEIAELKTQIEKNDQALSEKNHEVMVSNQALQMKDTNLTNLEKLFADSREQLETKCKELAAAEQQLQELSVHNQQLEESIKQVSSSIELEKINAEQRLQISELEKLKAAQEERIEKLSSNNRNVEILKEEKNDLESKLYRFEEYRDKVATLELENEKIQTELNSWKSLITNELPTPEAVSNKLVFLQNTNANLGERVSSLESQLSNKPANQPLGANEKDAAHITELETKLKELHEQNRRLQRQKSLATQEIDLLRENLKSYDDEEAILSEKNTDMKKLERIEGLVKLVDEYKLKLESMPVSLDVDETSDEVSLQKRRRKNEHKDAGYVTELYRKNQHLLFQVKEKTNIEAFLREQIITLESSIATLRQELAQVTEINSCRVLQHRSNPTLKYERIKAAQLEMLNAENSALKALLEDKKVDCLPIQSFKIAERKALDLKKEVAEREKRIQRLKEIFSVKSLEFREAVFSLFGYKLDFMPNGSVRVTSTYSREDNTAFIFDGESSTMKLVGNPSGPEFERLIRFWCDERKTIPGMLAALTLELLDKND"}, "B2": {"name": "Mad1‐GFP (Mad1 fused to ymEGFP), expressed in S. pombe (protein, UniProt P87169 1-676)", "chain": "B1 chain"}, "B3": {"name": "Mad1‐flag‐His, in vitro translated (protein, UniProt P87169 1-676)", "chain": "B1 chain", "modifications": "35S-labeled Methionine and Cysteine"}, "B4": {"name": "Mad1‐GFP, in vitro translated (protein, UniProt P87169 1-676)", "chain": "B1 chain", "modifications": "35S-labeled Methionine and Cysteine"}, "B5": {"name": "untagged Mad1, in vitro translated (protein, UniProt P87169 1-676)", "chain": "B1 chain", "modifications": "35S-labeled Methionine and Cysteine"}},
  "key": {"[1]": {"target": "T1, Mad1‐GFP (Mad1 fused to ymEGFP), expressed in S. pombe (S. pombe) (UniProt P87169)", "T1 sequence": "B1 chain", "test": "co-IP; anti-GFP antibodies covalently coupled to Protein G Dynabeads; extracts of S. pombe cells expressing two forms of Mad1 (haploid: Mad1-GFP and untagged Mad1; diploid: Mad1-GFP and Mad1-Strep); 10 min at 4°C; lysis buffer 20 mM Tris pH 7.5, 150 mM NaCl, 5% glycerol, 0.1% NP-40; blot with anti-Mad1"}, "[2]": {"target": "T2, Mad1‐Strep, expressed in S. pombe (S. pombe) (UniProt P87169)", "T2 sequence": "B1 chain", "test": "pull-down; Strep pull-down with MagStrep type3 XT beads from extracts of diploid S. pombe cells expressing Mad1-GFP and Mad1-Strep; 45 min to 1 h at 4°C; washed with lysis buffer or 300 mM NaCl, 1% NP-40 wash buffer; blot with anti-Mad1"}, "[3]": {"target": "T3, Mad1‐GFP, in vitro translated (S. pombe) (UniProt P87169)", "T3 sequence (chain, 35S-labeled Methionine and Cysteine)": "B1 chain", "test": "co-IP; anti-GFP immunoprecipitation after co-translation of two forms of Mad1 in rabbit reticulocyte lysate with 35S label; 20 mM Tris pH 7.5, 150 mM NaCl, 0.1% NP-40; autoradiograph"}, "[4]": {"target": "T4, Mad1‐flag‐His, in vitro translated (S. pombe) (UniProt P87169)", "T4 sequence (chain, 35S-labeled Methionine and Cysteine)": "B1 chain", "test": "pull-down; His pull-down with Ni-NTA Dynabeads after co-translation of two forms of Mad1 in rabbit reticulocyte lysate with 35S label; 50 mM sodium-phosphate pH 8.0, 300 mM NaCl, 0.01% Tween-20; washes with 10-20 mM imidazole and 0.1% NP-40; autoradiograph"}},
  "note": "These are yes or no findings as the source states them, for the method shown. In cells and extracts the contact can be indirect. Some results given as binding are weak or reduced against the parent protein; the word gives no strength. Sequences can lack the tags named with a protein.",
  "data": [
    {"binder": "B1", "values": [
      {"measurement": "binding", "setting": "[1]", "value": "binds weakly"}
    ]},
    {"binder": "B2", "values": [
      {"measurement": "binding", "setting": "[2]", "value": "binds weakly"}
    ]},
    {"binder": "B3", "values": [
      {"measurement": "binding", "setting": "[3]", "value": "binds weakly"}
    ]},
    {"binder": "B4", "values": [
      {"measurement": "binding", "setting": "[4]", "value": "binds weakly"}
    ]},
    {"binder": "B5", "values": [
      {"measurement": "binding", "setting": "[4]", "value": "binds weakly"}
    ]}
  ]
}
